# Measured values published in the supplement of paper PMC4604168 (melanoma cell lines).
# The list shows a part of the results. Single values are uncertain, as repeats are few or missing.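 Imaging used 1,536-well plates; nuclei positive for cleaved PARP by antibody were divided by total DNA-stained nuclei to yield the apoptosis fraction. Doses for screening kept most cells viable, and cell lines differ markedly in resting and induced cleaved-PARP levels.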
# Columns and labels:
# Assay in all cases: cleaved PARP positive nuclei fraction relative to DMSO control; melanoma cells; higher = more apoptosis
# Details in all cases: library dose: low library concentration; 72 h
# 501Mel = tested on: 501Mel
# A101D = tested on: A101D
# A2058 = tested on: A2058
# A375 = tested on: A375
# C32 = tested on: C32
# CBRC008 = tested on: CBRC008 (line from a melanoma biopsy)
# CBRC013 = tested on: CBRC013 (line from a melanoma biopsy)
# CBRC014 = tested on: CBRC014 (line from a melanoma biopsy)
# CBRC016 = tested on: CBRC016 (line from a melanoma biopsy)
# CBRC017 = tested on: CBRC017 (line from a melanoma biopsy)
Structure (SMILES),cleaved PARP positive nuclei fraction (501Mel) [%],cleaved PARP positive nuclei fraction (A101D) [%],cleaved PARP positive nuclei fraction (A2058) [%],cleaved PARP positive nuclei fraction (A375) [%],cleaved PARP positive nuclei fraction (C32) [%],cleaved PARP positive nuclei fraction (CBRC008) [%],cleaved PARP positive nuclei fraction (CBRC013) [%],cleaved PARP positive nuclei fraction (CBRC014) [%],cleaved PARP positive nuclei fraction (CBRC016) [%],cleaved PARP positive nuclei fraction (CBRC017) [%]
"COc1cc([C@@H]2c3cc4c(cc3[C@@H](O[C@@H]3O[C@@H]5CO[C@@H](C)O[C@H]5[C@H](O)[C@H]3O)[C@H]3COC(=O)[C@H]23)OCO4)cc(OC)c1O [etoposide] + CC1(C)NC(=O)N(c2ccc([N+](=O)[O-])c(C(F)(F)F)c2)C1=O [nilutamide] (first compound 0.02 µM, partner dose 1 µM)",93.5,83.4,151,48.3,128,149,61.5,65.4,52.2,105
"Cc1cn(-c2cc(NC(=O)c3ccc(C)c(Nc4nccc(-c5cccnc5)n4)c3)cc(C(F)(F)F)c2)cn1 [nilotinib] + C[C@@H]1CCN(C(=O)CC#N)C[C@@H]1N(C)c1ncnc2[nH]ccc12 [CP690550] (first compound 0.2 µM, partner dose 1 µM)",81,69.4,96.4,126,44.8,22.8,177,820,62.5,86
"Cc1cc(Nc2cc(N3CCN(C)CC3)nc(Sc3ccc(NC(=O)C4CC4)cc3)n2)n[nH]1 [Tozasertib] + Cn1cncc1[C@@](N)(c1ccc(Cl)cc1)c1ccc2c(c1)c(-c1cccc(Cl)c1)cc(=O)n2C [tipifarnib] (first compound 0.006 µM, partner dose 0.01 µM)",73.2,90.3,66.4,37.9,58.6,87.4,101,81.2,46.5,89.6
"N#CC[C@H](C1CCCC1)n1cc(-c2ncnc3[nH]ccc23)cn1 [ruxolitinib] + NC(=O)Nc1cc(-c2cccc(F)c2)sc1C(=O)N[C@H]1CCCNC1 [AZD7762] (first compound 1 µM, partner dose 0.02 µM)",38.8,45.2,118,167,96.5,75.5,87.7,86.9,247,110
"N#CC[C@H](C1CCCC1)n1cc(-c2ncnc3[nH]ccc23)cn1 [ruxolitinib] + CN(NC(=O)CC(=O)NN(C)C(=S)c1ccccc1)C(=S)c1ccccc1 [STA4783] (first compound 1 µM, partner dose 0.006 µM)",90.9,161,72.3,1750,127,2440,178,518,511,162
"O=C(/C=C/c1cccnc1)NCCCCC1CCN(C(=O)c2ccccc2)CC1 + O=C(O)c1ccc(-c2c[nH]c3ncc(-c4ccccc4)cc23)cc1C1CCCC1 [GSK650394] (first compound 0.01 µM, partner dose 0.16 µM)",64,50.2,91.5,70.6,101,1860,101,192,839,441
"Cc1cc(Nc2cc(N3CCN(C)CC3)nc(Sc3ccc(NC(=O)C4CC4)cc3)n2)n[nH]1 [Tozasertib] + OCCn1cc(-c2cnc3nnn(Cc4ccc5ncccc5c4)c3n2)cn1 [PF04217903] (first compound 0.006 µM, partner dose 1 µM)",82.1,87.7,134,77.8,145,149,106,88.5,75.8,78.9
"Cc1cn(-c2cc(NC(=O)c3ccc(C)c(Nc4nccc(-c5cccnc5)n4)c3)cc(C(F)(F)F)c2)cn1 [nilotinib] + O=C(Nc1cccc(Cl)c1)Nc1ncc(CCNc2ncnc3ccsc23)s1 [SNS314] (first compound 0.2 µM, partner dose 0.0008 µM)",210,162,61.9,79.1,54.4,232,84.9,133,998,103
"O=C(Nc1cc(C(F)(F)F)cc(C(F)(F)F)c1)c1cc(Cl)ccc1O + C[C@@H]1CCN(C(=O)CC#N)C[C@@H]1N(C)c1ncnc2[nH]ccc12 [CP690550] (first compound 0.016 µM, partner dose 1 µM)",196,91.1,27,61.3,57.5,54.4,93.1,97.5,45.9,84.5
"O=C(/C=C/c1cccnc1)NCCCCC1CCN(C(=O)c2ccccc2)CC1 + C=CCn1c(=O)c2cnc(Nc3ccc(N4CCN(C)CC4)cc3)nc2n1-c1cccc(C(C)(C)O)n1 [MK1775] (first compound 0.01 µM, partner dose 0.02 µM)",87.4,116,45.2,1240,133,2230,131,109,453,778
"O=C(/C=C/c1cccnc1)NCCCCC1CCN(C(=O)c2ccccc2)CC1 + Cc1ccc(NC(=O)c2cccc(N(C)C)c2)cc1NC(=O)c1ccc(O)cc1 [ZM336372] (first compound 0.01 µM, partner dose 2 µM)",102,184,186,56.5,104,6800,77.2,116,909,406
"O=C(Nc1cc(C(F)(F)F)cc(C(F)(F)F)c1)c1cc(Cl)ccc1O + O=C(O)c1ccc(-c2c[nH]c3ncc(-c4ccccc4)cc23)cc1C1CCCC1 [GSK650394] (first compound 0.016 µM, partner dose 0.16 µM)",89.3,83.4,126,97.9,130,168,170,97.1,132,128
"Cc1cn(-c2cc(NC(=O)c3ccc(C)c(Nc4nccc(-c5cccnc5)n4)c3)cc(C(F)(F)F)c2)cn1 [nilotinib] + O=C(O)c1ccc(-c2c[nH]c3ncc(-c4ccccc4)cc23)cc1C1CCCC1 [GSK650394] (first compound 0.2 µM, partner dose 0.16 µM)",91.9,161,38.7,76.8,144,355,120,85.9,104,103
"CCCCCCCCCCCCCCCCCCOP(=O)([O-])OC1CC[N+](C)(C)CC1 [Perifosine] + Cc1cc(N2CCOCC2)cc2[nH]c(-c3c(NC[C@@H](O)c4cccc(Cl)c4)cc[nH]c3=O)nc12 [BMS536924] (first compound 0.4 µM, partner dose 0.2 µM)",245,251,187,579,98.8,70.2,179,100,47.6,92.2
"N#CC[C@H](C1CCCC1)n1cc(-c2ncnc3[nH]ccc23)cn1 [ruxolitinib] + O=C(CCCCCCC(=O)Nc1ccccc1)NO [vorinostat] (first compound 1 µM, partner dose 0.08 µM)",35.7,212,89.5,99,36.6,114,85.7,90.4,136,104
"O=C(Nc1cc(C(F)(F)F)cc(C(F)(F)F)c1)c1cc(Cl)ccc1O + OCCn1cc(-c2cnc3nnn(Cc4ccc5ncccc5c4)c3n2)cn1 [PF04217903] (first compound 0.016 µM, partner dose 1 µM)",88,39,96.9,104,57.9,260,148,61.9,119,98
"CCCCCCCCCCCCCCCCCCOP(=O)([O-])OC1CC[N+](C)(C)CC1 [Perifosine] + Cc1ccc(NC(=O)c2cccc(N(C)C)c2)cc1NC(=O)c1ccc(O)cc1 [ZM336372] (first compound 0.4 µM, partner dose 2 µM)",97.7,94,189,49.2,76,195,115,96.5,82.6,123
"COc1cc([C@@H]2c3cc4c(cc3[C@@H](O[C@@H]3O[C@@H]5CO[C@@H](C)O[C@H]5[C@H](O)[C@H]3O)[C@H]3COC(=O)[C@H]23)OCO4)cc(OC)c1O [etoposide] + COc1cc2c(Oc3ccc4[nH]c(C)cc4c3F)ncnc2cc1OCCCN1CCCC1 [cediranib] (first compound 0.02 µM, partner dose 0.4 µM)",86.7,75.6,68.5,123,48.9,67.9,101,82.2,92.3,203
"Cc1ccc(Nc2nccc(N(C)c3ccc4c(C)n(C)nc4c3)n2)cc1S(N)(=O)=O [Pazopanib] + CN(NC(=O)CC(=O)NN(C)C(=S)c1ccccc1)C(=S)c1ccccc1 [STA4783] (first compound 0.4 µM, partner dose 0.006 µM)",189,51.4,301,1900,63.2,1040,126,520,316,188

# Full records from above. Order of values: cleaved PARP positive nuclei fraction (501Mel) [%] | cleaved PARP positive nuclei fraction (A101D) [%] | cleaved PARP positive nuclei fraction (A2058) [%] | cleaved PARP positive nuclei fraction (A375) [%] | cleaved PARP positive nuclei fraction (C32) [%] | cleaved PARP positive nuclei fraction (CBRC008) [%] | cleaved PARP positive nuclei fraction (CBRC013) [%] | cleaved PARP positive nuclei fraction (CBRC014) [%] | cleaved PARP positive nuclei fraction (CBRC016) [%] | cleaved PARP positive nuclei fraction (CBRC017) [%]
# O=C(/C=C/c1cccnc1)NCCCCC1CCN(C(=O)c2ccccc2)CC1 + O=C(O)c1ccc(-c2c[nH]c3ncc(-c4ccccc4)cc23)cc1C1CCCC1 [GSK650394] (first compound 0.01 µM, partner dose 0.16 µM) as listed: 64 | 50.2 | 91.5 | 70.6 | 101 | 1860 | 101 | 192 | 839 | 441
# O=C(Nc1cc(C(F)(F)F)cc(C(F)(F)F)c1)c1cc(Cl)ccc1O + O=C(O)c1ccc(-c2c[nH]c3ncc(-c4ccccc4)cc23)cc1C1CCCC1 [GSK650394] (first compound 0.016 µM, partner dose 0.16 µM) as listed: 89.3 | 83.4 | 126 | 97.9 | 130 | 168 | 170 | 97.1 | 132 | 128
